Experimental data taken from patent publication US12435083B2, “Cyclopropyl-(hetero)aryl-substituted ethylsulphonyl-pyridine derivatives” (BOEHRINGER INGELHEIM VETMEDICA GMBH, priority 2021, dated 2025).
pEC50: −log10 of the molar value. Some of these results come from one statement about several compounds together. At least one compound was matched to its structure with a doubt left.

Tests used:
[1] = tested on: adult Ctenocephalides felis fleas; assay: Ingestion activity (flea membrane feeding, blood feeding) against adult Ctenocephalides felis; settings: bovine blood, 24h post treatment
Description: Example 6: Screening Method to Test Ingestion Activity of Compounds of Formula (I) Against Adult Ctenocephalides felis
The four structurally closest prior art compounds (A), (B), (C) and (D) specifically excluded from the scope of formula (I) were characterized vis-a-vis selected compounds of formula (I) with regard to their potency in in vitro screening assays against fleas (Ctenocehalides felis) and ticks (Rhipicephalus sanguineus).
It is important to note that compounds that show better activity versus ticks are more desirable in the animal health field, as ticks are more difficult to control than fleas. Noteworthy, in particular with regard to fleas the illustrated comparative data are based on a flea membrane feeding (ingestion, blood feeding) assay. Data from this assay are more relevant for compounds intended to be delivered systemically to an animal via oral or injectable routes. Membrane feeding assays differ to primary screening laboratory contact assays in that the latter only measure the effect of the direct contact of selected compounds on the parasite, such as the flea or the tick. The information derived from laboratory contact assays is strictly limited to the ability of the compound to be absorbed through the parasite surface and to reach its molecular target, and no information can be gleaned from these contact assays as to whether the compound would also be active when presented orally to the ectoparasite itself in a blood meal, such as with the membrane feeding assay, and certainly not when administered orally to an animal host (e.g. “in vivo”) with subsequent exposure to the ectoparasite.
However, as explained above, spectrum of action against this range of species (i.e. fleas and ticks) is a desirable property of ectoparasiticides for veterinary use. In the following table 1 comparative experimental data of the in vitro assays are shown regarding flea membrane feeding (ingestion, blood feeding) activity against Ctenocephalides felis and contact activity against Rhipicephalus sanguineus.

[2] = tested on: Myzus persicae; assay: Insecticidal test on Myzus persicae (foliar application on potted Chinese cabbage); settings: 500 ppm, 6 days after application
[3] = tested on: Aedes aegypti L1 larvae; assay: Activity against larvae of Aedes aegypti (L1 larvae, 384-well, image-based mortality); settings: 48 h at 27° C., read-out: EC50 (percentage of mortality, A. aegypti L1 larvae)
Description: Example 3: Screening Method to Test Activity of Compounds of Formula (I) Against Larvae of Aedes aegypti
Eight A. aegypti L1 larvae in a total volume of 64 μL water were added to 384-well microplates containing compounds formulated in 100% DMSO. The plates were incubated for 48 h at 27° C. Individual well images were acquired and analyzed using a pipeline to quantitatively assess the amount of larvae biomass accumulating at the bottom of the well. The efficacy of a compound at a given dose is expressed as “percentage of mortality” and determined by comparison to average biomass descriptors of positive and negative control wells containing 1.0 μM Fipronil or DMSO only, respectively. Dose response assay were conducted to determine an EC50 value.

[4] = tested on: Spodoptera litura 2nd-instar larvae; assay: Insecticidal test on Spodoptera litura (cabbage leaf dip); settings: 500 ppm, 8 days after inoculation
[5] = tested on: Plutella xylostella; assay: Insecticidal test on Plutella xylostella (Chinese cabbage seedling dip); settings: 500 ppm, 6 days after dip treatment
Method in brief: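 Compounds dispersed in water at 500 ppm; Chinese cabbage seedlings bearing eggs laid by released adults over 2 days were dipped ~30 s, air-dried and kept at 25° C. Dead and live insects counted 6 days later; corrected mortality versus untreated plot scored A (100%), B (90–99%), C (80–89%), D (50–79%).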

[6] = tested on: Laodelphax striatellus 3rd-instar nymphs; assay: Insecticidal test on Laodelphax striatellus (rice seedling dip); settings: 500 ppm, 8 days after inoculation
[7] = tested on: adult Ctenocephalides felis fleas; assay: Contact activity against adult Ctenocephalides felis (treated surface, motility by machine vision, 24 h)
Description: Example 7: Screening Method to Test Contact Activity of Compounds of Formula (I) Against Adult Ctenocephalides felis

[8] = tested on: adult Ctenocephalides felis fleas; assay: Contact activity against adult Ctenocephalides felis (coated pipe cleaner in vial, mortality at 72 h); settings: 72 hours post-treatment, read-out: EC50 (percentage mortality, adult C. felis, contact)
[9] = tested on: larvae of Rhipicephalus sanguineus; assay: Contact activity against larvae of Rhipicephalus sanguineus (eggs on treated surface, larval motility); settings: approximately one month until larvae hatch

SMILES: CCS(=O)(=O)c1cc(-c2ccc(C3(C#N)CC3)cc2)cnc1-c1nc2cc(C(F)(F)C(F)(F)F)nnc2n1C [compound 18]
- EC80 (% motility reduction, adult C. felis, ingestion via membrane feeding) [1]: less than 1 μM
- control efficacy level (control rate), Myzus persicae [2]: A (the control rate is 100%)
- pEC50 [3]: > 7.40
- activity level (corrected mortality rate), Spodoptera litura [4]: A (the corrected mortality rate is 100%)
- activity level (corrected mortality rate), Plutella xylostella [5]: A (the corrected mortality rate is 100%)
- activity level (corrected mortality rate), Laodelphax striatellus [6]: A (the corrected mortality rate is 100%)
- EC80 (% motility reduction, adult C. felis, contact) [7]: less than 1 μM

SMILES: CCS(=O)(=O)c1cc(-c2ccc(C3(C#N)CC3)cc2)cnc1-c1nc2cc(C(F)(F)F)cn(CC(F)F)c-2c1F [compound 67]
- EC80 (% motility reduction, adult C. felis, ingestion via membrane feeding) [1]: less than 1 μM
- pEC50 [3]: > 7.40
- activity level (corrected mortality rate), Spodoptera litura [4]: A (the corrected mortality rate is 100%)
- activity level (corrected mortality rate), Plutella xylostella [5]: A (the corrected mortality rate is 100%)
- EC80 (% motility reduction, adult C. felis, contact) [7]: less than 1 μM

SMILES: CCS(=O)(=O)c1cc(-c2ccc(C3(C#N)CC3)nc2)cnc1-c1nc2cc(C(F)(F)C(F)(F)F)nnc2n1C [compound 71]
- EC80 (% motility reduction, adult C. felis, ingestion via membrane feeding) [1]: less than 1 μM
- control efficacy level (control rate), Myzus persicae [2]: A (the control rate is 100%)
- pEC50 [3]: > 7.40
- pEC50 [8]: > 5.00
- activity level (corrected mortality rate), Spodoptera litura [4]: A (the corrected mortality rate is 100%)
- activity level (corrected mortality rate), Plutella xylostella [5]: A (the corrected mortality rate is 100%)
- activity level (corrected mortality rate), Laodelphax striatellus [6]: A (the corrected mortality rate is 100%)
- EC80 (% motility reduction, adult C. felis, contact) [7]: less than 1 μM

SMILES: CCS(=O)(=O)c1cc(-c2ccc(C3(C(F)(F)F)CC3)cc2)cnc1-c1nc2cc(C(F)(F)C(F)(F)F)cnc2n1C [compound 79]
- EC80 (% motility reduction, R. sanguineus larvae, contact) [9]: less than 500 μM/m^2
- pEC50 [3]: > 7.40
- activity level (corrected mortality rate), Spodoptera litura [4]: A (the corrected mortality rate is 100%)
- activity level (corrected mortality rate), Plutella xylostella [5]: A (the corrected mortality rate is 100%)

SMILES: CCS(=O)(=O)c1cc(-c2ccc(C3(C#N)CC3)cc2)cnc1-c1nc2cc(S(=O)(=O)C(F)(F)F)nnc2n1C [compound 85]
- EC80 (% motility reduction, adult C. felis, ingestion via membrane feeding) [1]: less than 1 μM
- control efficacy level (control rate), Myzus persicae [2]: A (the control rate is 100%)
- pEC50 [3]: > 7.40
- activity level (corrected mortality rate), Spodoptera litura [4]: A (the corrected mortality rate is 100%)
- activity level (corrected mortality rate), Plutella xylostella [5]: A (the corrected mortality rate is 100%)
- activity level (corrected mortality rate), Laodelphax striatellus [6]: A (the corrected mortality rate is 100%)
- EC80 (% motility reduction, adult C. felis, contact) [7]: less than 1 μM

SMILES: CCS(=O)(=O)c1cc(-c2ccc(C3(C#N)CC3)cc2)cnc1-c1nc2cc(C(F)(F)F)n(C3CC3)c(=O)c2n1C [compound 88]
- control efficacy level (control rate), Myzus persicae [2]: A (the control rate is 100%)
- EC80 (% motility reduction, R. sanguineus larvae, contact) [9]: less than 500 μM/m^2
- pEC50 [3]: > 7.40
- activity level (corrected mortality rate), Spodoptera litura [4]: A (the corrected mortality rate is 100%)
- activity level (corrected mortality rate), Plutella xylostella [5]: A (the corrected mortality rate is 100%)
- activity level (corrected mortality rate), Laodelphax striatellus [6]: A (the corrected mortality rate is 100%)

SMILES: CCS(=O)(=O)c1cc(-c2ccc(C3CC3)nc2)cnc1-c1nc2cc(C(F)(F)C(F)(F)F)cnc2n1C [compound 90]
- control efficacy level (control rate), Myzus persicae [2]: A (the control rate is 100%)
- pEC50 [3]: > 7.40
- pEC50 [8]: > 5.00
- activity level (corrected mortality rate), Spodoptera litura [4]: A (the corrected mortality rate is 100%)
- activity level (corrected mortality rate), Plutella xylostella [5]: A (the corrected mortality rate is 100%)
- EC80 (% motility reduction, adult C. felis, contact) [7]: less than 1 μM
